Source: PubChem BioAssay AID328 (DTP/NCI, 2004)
The list is a part of this screen's results and no random one: it is rich in T/C values a quarter to a half above the control, in often repeated tests (any T/C) and in doses without a T/C. Further doses and runs are listed elsewhere. T/C gives the treated animals as a percentage of the vehicle group. Some doses have a count of surviving animals in place of a T/C: the source holds a T/C of zero for them, seemingly a mark for toxic or unscored doses. Some survivor counts are full or nearly so, which does not show that the dose was tolerated: survival well below the control is almost never listed, so the zero probably covers shortened survival too. Survivors were counted at the toxicity check, usually on the fifth day, unless a day is given; later deaths do not show. Schedules are NCI's codes, taken here to give the interval after Q, in days (D) or hours (H), and the number of doses after X. Some entries hold several experiments; the values are given in rising order. Additions like (4×) say how often a value occurs here. For survival time, the PubChem record calls one and a half times the control and up active, and a quarter to a half above the control has no call in these data; cut-offs in other NCI protocols can differ. Some T/C values carry the count of animals alive at the toxicity check (mostly the fifth day); without a count, all were alive then.

System: BDF1 mice, P388 leukemia ip, median survival T/C
Assay: NCI In Vivo Anticancer Drug Screen. Data for tumor model P388 Leukemia (intraperitoneal) in B6D2F1 (BDF1) mice
Settings: T/C endpoint: median survival time, higher T/C = longer survival
Outline: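 Vehicle-dosed animals serve as the reference; survival of compound-dosed, tumour-implanted mice is divided by it.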

[1] = dose: 6.25 mg/kg/injection, schedule: Q01DX009 (ip), vehicle: saline
[2] = dose: 25.0 mg/kg/injection, schedule: Q01DX009 (ip), vehicle: saline
[3] = dose: 100.0 mg/kg/injection, schedule: Q01DX009 (ip), vehicle: saline with Tween-80
[4] = dose: 400.0 mg/kg/injection, schedule: Q04DX003 (ip), vehicle: water
[5] = dose: 9.0 mg/kg/injection, schedule: Q01DX009 (ip), vehicle: saline
[6] = dose: 12.0 mg/kg/injection, schedule: Q01DX009 (ip), vehicle: saline

With `CCCCCCCCCCCCCCCC(N)=O` the survivor count (dose: 25.0 mg/kg/injection, schedule: Q01DX009 (ip), vehicle: gum acacia) was 6 of 6, the survivor count (dose: 100.0 mg/kg/injection, schedule: Q01DX009 (ip), vehicle: gum acacia) was 6 of 6 and the survivor count (dose: 200.0 mg/kg/injection, schedule: Q01DX009 (ip), vehicle: gum acacia) was 6 of 6. The survivor count (dose: 400.0 mg/kg/injection, schedule: Q01DX009 (ip), vehicle: gum acacia) was 6 of 6.
`[NH-]CC(=O)[N-]CC(=O)O.[NH-]CC(=O)[N-]CC(=O)O.[Ni]` was tested, and the survivor count (dose: 100.0 mg/kg/injection, schedule: Q04DX003 (ip), vehicle: saline) was 1 of 6 and the survivor count (dose: 200.0 mg/kg/injection, schedule: Q04DX003 (ip), vehicle: saline) was 0 of 6.
With `CC(C)(C)C1CC[N-]CC1.CC(C)(C)C1CC[N-]CC1.[Cl][Pt+2]([Cl])([Cl])[Cl]` the T/C [1] was 130 % of control, the T/C (dose: 12.5 mg/kg/injection, schedule: Q01DX009 (ip), vehicle: saline) was 127 and 131 % of control and the survivor count [2] was 3 of 6. The survivor count (dose: 50.0 mg/kg/injection, schedule: Q01DX009 (ip), vehicle: saline) was 1 of 6.
`CCCCCCCCCCCCCCC(F)C(=O)OCC1OC(CO)(OC2OC(CO)C(O)C(O)C2O)C(O)C1O` (stereo not drawn) was tested, and the survivor count [3] was 4 of 6 and the survivor count (dose: 200.0 mg/kg/injection, schedule: Q04DX003 (ip), vehicle: saline with Tween-80) was 3 of 6.
`CC(=O)[O][Pb]([CH2]CC(C)C)([CH2]CC(C)C)[CH2]CC(C)C` was tested, and the T/C (dose: 0.38 mg/kg/injection, schedule: Q01DX009 (ip), vehicle: saline with Tween-80) was 132 % of control, the T/C (dose: 0.75 mg/kg/injection, schedule: Q01DX009 (ip), vehicle: Klucel (hydroxypropylcellulose) (HPC)) was 131 % of control and the survivor count (dose: 0.75 mg/kg/injection, schedule: Q01DX009 (ip), vehicle: saline with Tween-80) was 1 of 6. For the same compound, the T/C (dose: 1.5 mg/kg/injection, schedule: Q01DX009 (ip), vehicle: Klucel (hydroxypropylcellulose) (HPC)) was 125 and 129 % of control, the survivor count (dose: 1.5 mg/kg/injection, schedule: Q01DX009 (ip), vehicle: saline with Tween-80) was 0 of 6 and the survivor count (dose: 3.0 mg/kg/injection, schedule: Q01DX009 (ip), vehicle: Klucel (hydroxypropylcellulose) (HPC)) was 0 of 6. The survivor count (dose: 3.0 mg/kg/injection, schedule: Q01DX009 (ip), vehicle: saline with Tween-80) was 0 of 6.
With `COc1ccc(C2=NNC(=O)OC2c2ccccc2)cc1` (stereo not drawn) the T/C [3] was 140 % of control.
`CC(=O)[C@H]1CC[C@H]2[C@@H]3CCC4=CC(=O)[C@H](C)C[C@]4(C)[C@@]3(F)C(=O)C[C@]12C` was tested, and the survivor count (dose: 400.0 mg/kg/injection, schedule: Q01DX009 (ip), vehicle: saline with Tween-80) was 6 of 6.
`CCC[CH2][Sn]([CH2]CCC)([CH2]CCC)[S]C(=S)NCCNC(=S)[S][Sn]([CH2]CCC)([CH2]CCC)[CH2]CCC` was tested, and the survivor count (dose: 6.25 mg/kg/injection, schedule: Q01DX010 (ip), vehicle: saline) was 0 of 6.
For `CCOC(=O)CNC(=O)Sc1ccc(C(C)(C)C)cc1`, the T/C (dose: 50.0 mg/kg/injection, schedule: Q01DX009 (ip), vehicle: Klucel (hydroxypropylcellulose) (HPC)) was 128 % of control and the T/C (dose: 100.0 mg/kg/injection, schedule: Q01DX009 (ip), vehicle: Klucel (hydroxypropylcellulose) (HPC)) was 136 % of control.
With `Cc1[nH]ccc2c(C)c3nc4ccccc4c3cc12` the T/C (dose: 2.06 mg/kg/injection, schedule: Q01DX009 (ip), vehicle: saline with Tween-80) was 145 % of control and the T/C (dose: 16.5 mg/kg/injection, schedule: Q01DX009 (ip), vehicle: saline with Tween-80) was 145 % of control.
With `CC(C)C1=CC2=CC(=O)C3C(C)(C)CCCC3(C)C2=C(O)C1=O` (stereo not drawn) the survivor count (dose: 20.0 mg/kg/injection, schedule: Q01DX010 (ip), vehicle: other) was 1 of 6 and the survivor count (dose: 40.0 mg/kg/injection, schedule: Q01DX010 (ip), vehicle: other) was 0 of 6.
With `COc1cc2c(c(OC)c1OC)-c1ccc(N)c(=O)cc1[C@@H](NC(C)=O)CC2` the T/C (dose: 1.0 mg/kg/injection, schedule: Q01DX010 (ip), vehicle: saline) was 127 % of control and the survivor count (dose: 4.0 mg/kg/injection, schedule: Q01DX010 (ip), vehicle: saline) was 8 of 8.
`COc1ccc(C=O)c(O)c1` was tested, and the survivor count (dose: 200.0 mg/kg/injection, schedule: Q04DX003 (ip), vehicle: Klucel (hydroxypropylcellulose) (HPC)) was 6 of 6.
With `CC1(c2cccc3ccccc23)NC(=O)c2ccccc2N1` (stereo not drawn) the T/C (dose: 200.0 mg/kg/injection, schedule: Q01DX009 (ip), vehicle: Klucel (hydroxypropylcellulose) (HPC)) was 130 % of control.
For `NC(N)=NCCCCCC(=O)Oc1ccc([N+](=O)[O-])cc1`, the survivor count (dose: 400.0 mg/kg/injection, schedule: Q04DX003 (ip), vehicle: saline) was 2 of 6.
With `CCOP(=O)(OCC)Oc1cnn(C)c(=O)c1SCC` the survivor count (dose: 50.0 mg/kg/injection, schedule: Q01DX005 (ip), vehicle: saline) was 0 of 6, the survivor count (dose: 100.0 mg/kg/injection, schedule: Q01DX005 (ip), vehicle: saline) was 0 of 6 and the survivor count (dose: 200.0 mg/kg/injection, schedule: Q01DX005 (ip), vehicle: saline) was 0 of 6.
With `CCS(=O)(=O)c1ncc2cnccn12` the survivor count [4] was 0 of 6.
In the case of `Clc1ccc(-c2cc(=[N+]3CC[N+](=c4cc(-c5ccc(Cl)cc5)ss4)CC3)ss2)cc1`, the T/C (dose: 25.0 mg/kg/injection, schedule: Q01DX009 (ip), vehicle: water) is reported as 125 % of control, the T/C (dose: 50.0 mg/kg/injection, schedule: Q01DX009 (ip), vehicle: water) is reported as 126 % of control and the survivor count (dose: 300.0 mg/kg/injection, schedule: Q01DX009 (ip), vehicle: water) is reported as 3 of 6. The survivor count [4] was 1 of 6.
With `Clc1ccc(C[P+](c2ccccc2)(c2ccccc2)c2ccccc2)cc1Cl` the survivor count (dose: 2.6 mg/kg/injection, schedule: Q04DX003 (ip), vehicle: saline) was 3 of 6, the survivor count (dose: 4.0 mg/kg/injection, schedule: Q04DX003 (ip), vehicle: saline) was 1 of 6 and the survivor count (dose: 5.4 mg/kg/injection, schedule: Q01DX001 (ip), vehicle: saline) was 3 of 6. The survivor count (dose: 5.6 mg/kg/injection, schedule: Q01DX009 (ip), vehicle: saline) was 6 of 6, the survivor count (dose: 6.0 mg/kg/injection, schedule: Q04DX003 (ip), vehicle: saline) was 1 of 6 and the survivor count (dose: 8.4 mg/kg/injection, schedule: Q01DX009 (ip), vehicle: saline) was 6 of 6.
For `CN(C)P(Cl)(Cc1ccccc1)(c1ccccc1)c1ccccc1`, the T/C (dose: 6.0 mg/kg/injection, schedule: Q01DX009 (ip), vehicle: saline) was 126 % of control, the T/C [5] was 127 % of control and the survivor count [5] was 5 of 6. The T/C [6] was 130 % of control [4 of 6 alive], the survivor count [6] was 0 of 6 (2×) and the survivor count (dose: 18.0 mg/kg/injection, schedule: Q01DX009 (ip), vehicle: saline) was 0 of 6 (2×).
In the case of `ClCCCN1CCCCC1CCl` (stereo not drawn), the T/C (dose: 3.12 mg/kg/injection, schedule: Q01DX009 (ip), vehicle: saline) is reported as 135 [5 of 6 alive] and 137 % of control, the T/C [1] is reported as 137 % of control and the T/C (dose: 6.25 mg/kg/injection, schedule: Q04DX003 (ip), vehicle: saline) is reported as 139 % of control (2×). The T/C (dose: 12.5 mg/kg/injection, schedule: Q04DX003 (ip), vehicle: saline) was 130 % of control, the survivor count [2] was 5 of 6 and 6 of 6 and the survivor count (dose: 50.0 mg/kg/injection, schedule: Q04DX003 (ip), vehicle: saline) was 6 of 6.
With `C=CCNC(=O)NCC=C` the T/C (dose: 25.0 mg/kg/injection, schedule: Q01DX010 (ip), vehicle: saline) was 133 % of control, the T/C (dose: 50.0 mg/kg/injection, schedule: Q01DX010 (ip), vehicle: saline) was 133 % of control and the T/C (dose: 200.0 mg/kg/injection, schedule: Q01DX010 (ip), vehicle: saline) was 144 % of control. For the same compound, the survivor count (dose: 400.0 mg/kg/injection, schedule: Q01DX010 (ip), vehicle: saline) was 0 of 6.
